Assay results as given in PubChem BioAssay AID493014 (National Center for Advancing Translational Sciences (NCATS), 2011).
This is one part of the list. Further columns of the screen follow, without active or inactive calls. The list favours compounds with an active or inconclusive main result. The note in brackets gives the kind of curve behind each potency; many fits are weak.

Test: qHTS Assay to Find Inhibitors of Chronic Active B-Cell Receptor Signaling
Details: ABC-DLBCL IkBa-CBG/CBR reporter, luminescence ratio (green luciferase fused to IkBa over red control in TMD8 lymphoma cells), 4 h
Procedure, shortened: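 Compounds up to 46 uM were incubated four hours with TMD8 cells whose green CBG68 luciferase is fused to IkappaBalpha; red CBR luminescence normalised the signal, and concentration-effect curves were fitted to fusion, red and ratio data.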

[1] = measured here: IkBa-CBG green luminescence
[2] = measured here: CBR red luminescence, cell number

CN1CCc2cccc3c2[C@@H]1Cc1ccc(O)c(O)c1-3
AC50 [1]: 1.84 µM [falling, partial curve, poor fit]

CCN1CCC(CNCc2cn(-c3ccc(OC)cc3)nc2-c2ccccc2Cl)C1 (centres undefined)
AC50 [2]: 25.1 µM [falling, single point]

O=[N+]([O-])c1ccc(O)c(C=Nc2ccc3c(c2)OCO3)c1
AC50 [2]: 8.91 µM [falling, partial curve, poor fit]

CC(C)C[C@H](CO)Nc1nc(N(C)c2cccc(Cl)c2)c2ncn(C(C)C)c2n1
AC50 [2]: 0.562 µM [falling, full curve, poor fit]

Cc1c(C(=O)O)oc2ccc(S(=O)(=O)N3CCC(C)CC3)cc12
AC50 [2]: 14.6 µM [falling, partial curve, poor fit]

O=C(Nc1ccc(N2CCOCC2)c(Cl)c1)c1ccc(Br)o1
AC50 [2]: 29.1 µM [falling, single point]

Cc1c(C#N)c(O)[nH]c(=O)c1N=Nc1ccc(Br)cc1C(=O)O
AC50 [2]: 17.8 µM [falling, single point]

COc1ccc(C(C)C)cc1S(=O)(=O)N1CCC(C(=O)NCC2CCCO2)CC1 (centres undefined)
AC50 [2]: 0.501 µM [rising, full curve]

COC(=O)CNC(=O)COC(=O)/C=C/c1ccc2ccccc2n1
AC50 [2]: 20 µM [falling, single point]

CN1CCN(C(=O)/C(=C/c2ccc(F)cc2)NC(=O)c2ccccc2)CC1
AC50 [2]: 0.1 µM [rising, full curve, poor fit]

O=C(O)c1ccccc1CSc1nnnn1-c1ccccc1
AC50 [2]: 35.5 µM [falling, single point]

CN(CC(=O)Nc1ccccc1Cl)C(=O)COC(=O)c1nc(Cl)c(Cl)c(Cl)c1Cl
AC50 [2]: 7.94 µM [falling, partial curve, poor fit]

C/C(=N\NS(C)(=O)=O)c1ccccc1
AC50 [2]: 7.31 µM [falling, partial curve, poor fit]

Cc1cc(C)cc(N(CC(=O)NCc2ccc(F)cc2)C(=O)c2snc(C(N)=O)c2N)c1
AC50 [2]: 15.8 µM [rising, partial curve, poor fit]

O=C1[C@H](Oc2ccccc2)[C@@H](c2ccccc2)N1c1ccncc1
AC50 [2]: 18.4 µM [falling, partial curve, poor fit]

Cc1ccc(-c2nc(NCCCO)c3ccccc3n2)cc1
AC50 [1]: 12.6 µM [rising, partial curve, poor fit]

CCOc1ccccc1NC(=O)CSc1nc(=O)n(Cc2ccncc2)c2c1CCC2
AC50 [2]: 6.51 µM [falling, partial curve]

COc1ccc(C(=O)Nc2ccc(NC(=O)c3ccccc3)cc2)cc1S(=O)(=O)N1CCOCC1
AC50 [2]: 17.8 µM [rising, partial curve, poor fit]

Cc1occc1-c1nnc(SCC(=O)c2c(N)n(Cc3ccccc3)c(=O)n(C)c2=O)n1C
AC50 [2]: 12.6 µM [rising, single point]

CCOC(=O)Cc1csc(NC(=O)COc2ccc3c(c2)CCC3)n1
AC50 [2]: 35.5 µM [falling, single point]

O=C(CCCc1c[nH]c2ccccc12)Nc1ncccc1O
AC50 [2]: 1.26 µM [falling, full curve, poor fit]

Cc1cc2nc(-c3cccc(NC(=O)c4ccc(Br)o4)c3C)oc2cc1C
AC50 [2]: 2.51 µM [falling, full curve]

CCc1cc(C(c2ccncc2)N2CCN(C)CC2)c(NC(=O)c2ccccc2)s1 (centres undefined)
AC50 [2]: 25.9 µM [falling, single point]

Cc1csc2c(N3CCN(C(=S)Nc4ccc(C(F)(F)F)cc4)CC3)ncnc12
AC50 [2]: 20 µM [falling, partial curve, poor fit]

CC(C)OCCCNc1nc(-c2ccccc2)nc2ccccc12
AC50 [2]: 35.5 µM [falling, single point]

COc1cc(S(=O)(=O)NCc2cccnc2)c(OC)cc1Br
AC50 [2]: 6.31 µM [falling, single point]

O=C(NCC1CCCO1)c1ccc(COc2ccccc2)o1 (centres undefined)
AC50 [2]: 23.1 µM [rising, single point]

COc1ccc(-c2cc(C(=O)N3CCOCC3)no2)cc1
AC50 [2]: 8.91 µM [falling, partial curve]

Cc1ccc(C(=O)O/N=C(\N)c2ccccn2)cc1C
AC50 [2]: 0.794 µM [falling, full curve]

Nc1cccc(C(=O)NCCNC(=O)c2cccc(N)c2)c1
AC50 [2]: 5.01 µM [rising, partial curve, poor fit]

COc1ccc(-c2[nH]c(-c3cccc(OC)c3)nc2SCC(=O)NCc2ccco2)cc1
AC50 [2]: 20.6 µM [falling, single point]

COC(=O)c1ccc(NC(=O)c2cccc(NC(=O)c3ccco3)c2)cc1
AC50 [2]: 11.2 µM [falling, single point]

Cc1ccc(S(=O)(=O)N2CCCCC2CCNC(=O)C(=O)NCc2ccccc2C)cc1 (centres undefined)
AC50 [2]: 5.8 µM [falling, partial curve]

c1ccc(Nc2c(-c3ccco3)nc3ccccn23)cc1
AC50 [2]: 7.31 µM [falling, partial curve, poor fit]

Cn1ccnc1SCC(=O)Nc1nc2ccccc2s1
AC50 [2]: 12.6 µM [falling, partial curve]

Cc1ccccc1C(=O)N1CCN(c2ccc(NC(=O)Cc3ccccc3)cc2)CC1
AC50 [2]: 7.94 µM [falling, partial curve, poor fit]

Cc1[nH]c2ccccc2c1C(=O)COC(=O)c1ccc([N+](=O)[O-])s1
AC50 [2]: 2.24 µM [rising, partial curve, poor fit]

CCOc1cc(/C=C2/NC(=O)N(CC(=O)OC)C2=O)ccc1O
AC50 [2]: 1.12 µM [falling, full curve]

CCC1(C)Cc2c(sc3nnn(CC(=O)Nc4ccccc4)c(=O)c23)CO1 (centres undefined)
AC50 [2]: 6.31 µM [rising, single point]

N#Cc1ncc(-c2ccc3c(c2)OCCOCCOCCOCCOCCO3)nc1C#N
AC50 [2]: 5.8 µM [falling, full curve]

CCOc1ccc(CNC(=O)c2cnc(SC)nc2CC)cc1
AC50 [2]: 11.2 µM [rising, partial curve, poor fit]

COc1cc2c(ccc3cc(OC)c(OC)c(O)c32)cc1O
AC50 [2]: 35.5 µM [falling, single point]

COC(=O)/C(=C\Nc1ccc(Cl)c2ccccc12)c1ncc(C(F)(F)F)cc1Cl
AC50 [2]: 5.8 µM [rising, single point]

CCOC(=O)CSc1[nH]c2cc(OC)ccc2c1[N+](=O)[O-]
AC50 [2]: 0.316 µM [falling, full curve, poor fit]

CCN1C(=O)C(O)(C2COC(C)(C)CC2=O)c2cc(Br)ccc21 (centres undefined)
AC50 [2]: 8.2 µM [rising, partial curve, poor fit] | AC50 [1]: 6.51 µM [falling, partial curve]

Cc1ccccc1-c1ccc(C=Nc2c(C)n(C)n(-c3ccccc3)c2=O)o1
AC50 [2]: 35.5 µM [rising, single point]

COC(=O)c1ccc(NC(=S)NNC(=O)c2ccccc2)cc1
AC50 [2]: 14.1 µM [falling, partial curve]

CNC(=S)N/N=C(\C)c1ccc(C(C)(C)C)cc1
AC50 [1]: 18.4 µM [falling, partial curve, poor fit]

C/C=C(/C)C(=O)OC1CC(C)(C)C[C@H]2C3=CC[C@@H]4[C@@]5(C)CCC(O[C@@H]6O[C@@H](C(=O)O)[C@@H](O)C(O[C@@H]7OC[C@H](O)[C@@H](O)[C@@H]7O[C@@H]7OC(CO)C(O)[C@@H](O)[C@@H]7O)C6O[C@@H]6OC(CO)C(O)C(O)C6O)[C@@](C)(CO)[C@@H]5CC[C@]4(C)[C@]3(C)CC(O)[C@@]12CO (some centres undefined)
AC50 [2]: 29.1 µM [rising, partial curve]

Cc1ccc(CN=C2NC(=O)C(CC(=O)NCCc3ccccc3)S2)cc1 (centres undefined)
AC50 [2]: 35.5 µM [rising, single point]

CC(=O)Nc1ccc(C(=O)OCc2ccccc2Cl)cc1
AC50 [2]: 2.91 µM [rising, partial curve]

O=C(O)Cn1c2c(c3ccccc31)CSc1ccc(Cl)cc1-2
AC50 [2]: 3.55 µM [falling, partial curve, poor fit]

Cn1c(SCc2ccccc2)nnc1-c1ccncc1
AC50 [2]: 5.62 µM [rising, single point]

CN(C)CCOc1ccc2ccccc2c1
AC50 [2]: 2.06 µM [rising, partial curve]

COc1ccc(C(=O)CSc2nnc(-c3ccccn3)n2Cc2ccco2)cc1
AC50 [2]: 35.5 µM [rising, single point]

COc1ccccc1/C=C/C(=O)NC(=S)NC(C)C
AC50 [2]: 29.1 µM [falling, single point]

CCOC(=O)c1c(CC(C)C)csc1NC=O
AC50 [2]: 8.91 µM [rising, partial curve]

O=C(NC(=S)Nc1ccccc1N1CCOCC1)c1cccs1
AC50 [2]: 2.91 µM [falling, partial curve]

Cn1cc(C(=O)c2ccccc2)cc1-c1nc2ccccc2n1C
AC50 [2]: 8.2 µM [falling, partial curve, poor fit]

Cn1nc(C(=O)Nc2ccccc2)c2c1-c1ccccc1S(=O)(=O)C2
AC50 [2]: 8.91 µM [rising, partial curve]

CCCCOc1ccc(-c2nc(-c3cccnc3)no2)cc1
AC50 [2]: 3.26 µM [falling, partial curve, poor fit]

COc1ccc(CC(=O)Nc2nc(-c3ccc(F)c(F)c3)cs2)cc1OC
AC50 [2]: 11.2 µM [falling, partial curve, poor fit]

Oc1cccc(Nc2nc(-c3ccccc3)nc3ccccc23)c1
AC50 [2]: 10 µM [falling, partial curve]
